Experimental data: US9428536B2, “Immunostimulatory G, U-containing oligoribonucleotides” (Zoetis Belgium SA, priority 2002, dated 2016)
Some of these results come from one statement about several compounds together. Some compounds share one range, which may span the group rather than tell each member.

Legend:
human PBMC [1] = assay: Human PBMC TNF-α secretion, ELISA; format: cell-based; conditions: for secreted amounts of TNF-α: Example 1, FIG. 2, RNA 50 μg/ml in combination with DOTAP, 16 hours; for TNF induced: Example 11, FIG. 7, micromolar concentrations in the presence of DOTAP, overnight
Experimental: (§1) Human peripheral blood mononuclear cells (PBMCs) were isolated from healthy donors, plated at 3×10^5 cells/well, stimulated in vitro with various test and control immunostimulatory agents for 16 hours, and then analyzed by enzyme-linked immunosorbent assay (ELISA) using matched antibody pairs from BD-Pharmingen for secreted cytokines IL-12 p40 and TNF-α, performed according to the manufacturer's protocol. Also included were certain negative controls, including medium alone and DOTAP (10 μg/200 μl culture well; “Liposomes”) alone. The control immunostimulatory agents included the imidazoquinolone R-848 (2 μg/ml), lipopolysaccharide (LPS; 1 μg/ml), Pam3Cys (5 μg/ml), poly IC (50 μg/ml), and CpG DNA (50 μg/ml). These are reported ligands for TLR7, TLR4, TLR2, TLR3, and TLR9, respectively. Test immunostimulatory agents included the following RNA molecules, each at 50 μg/ml, with and without DOTAP (10 μg total “with Liposomes” and “without Liposomes”, respectively): GUGUUUAC alone; GUAGGCAC alone; GUGUUUAC in combination with GUAGGCAC; GUAGGA; GAAGGCAC; CUAGGCAC; CUCGGCAC; and CCCCCCCC. These RNA oligonucleotides each contained a phosphorothioate linkage between the penultimate and 3′ terminal nucleoside.
(§2) The experiments described in the preceding example were repeated with varied concentrations of RNA oligonucleotides in order to assess the dose-response behavior of human PBMCs to G,U-containing RNA oligonucleotides of the invention. A total of 10, 3 or 1 μg RNA was added to 10 μg DOTAP and then added to the 200 μl culture wells. After 16 hours IL-12 p40 and TNF-α ELISAs were performed as described in Example 1.
In order to investigate the possibility of using cholesteryl ester-modified RNA oligomer in place of RNA oligomer plus cationic lipid, RNA oligomer GUGUGUGU was prepared with (R 1058) and without (R 1006) a 3′ cholesteryl ester modification. These two RNA oligomers with and without DOTAP, were added over a range of concentrations to overnight cultures of human PBMC. Culture supernatants were harvested, and human TNF-α, IL-12 p40, and IFN-α were measured by ELISA using matched antibody pairs from BD-Pharmingen according to the manufacturer's protocol.
(§3) RNA oligomers GUGUGUGU, GUGUGUG, GUGUGU, GUGUG, GUGU, GUG, and GU, with and without DOTAP, were added over a range of concentrations to overnight cultures of human PBMC. Culture supernatants were harvested, and human TNF-α, IL-12 p40, and IFN-α were measured by ELISA using matched antibody pairs from BD-Pharmingen according to the manufacturer's protocol.
as §3, with “oligomers,” for “oligomers GUGUGUGU, GUGUGUG, GUGUGU, GUGUG, GUGU, GUG, and GU,”
Human PBMC were cultured overnight in the presence of added DNA:RNA conjugate, with and without DOTAP. Culture supernatants were harvested and human TNF-α, IL-6, IL-12 p40, IP-10, and IFN-α were measured by ELISA using matched antibody pairs from BD-Pharmingen according to the manufacturer's protocol.
Human PBMC were cultured overnight in the presence of various concentrations (1, 3, and 10 μg/ml) of tRNA obtained from wheat germ, bovine, yeast, and E. coli sources, added to the culture medium with and without DOTAP. Culture supernatants were harvested and human TNF-α and IL-12 p40 were measured by ELISA using matched antibody pairs from BD-Pharmingen according to the manufacturer's protocol. […] In addition, E. coli tRNA at 3 and 10 μg/ml induced minor amounts of both cytokines even without DOTAP. […]
FIG. 10 depicts the responsiveness of human PBMC to stringent response factor (SRF). SRF is produced by rapidly growing bacteria (in this case Listeria monocytogenes) in rich media until their late log phase. The bacteria were pelleted and resuspended in an equal volume of PBS for 24 h. The mixture is centrifuged to remove the bacteria. […]

human PBMC [2] = assay: Human PBMC IL-12 p40 secretion, ELISA; format: cell-based; conditions: for secreted amounts of IL-12 p40: Example 1, FIG. 1, RNA 50 μg/ml in combination with DOTAP, 16 hours; for IL-12 p40 induced: Example 11, FIG. 7, micromolar concentrations in the presence of DOTAP, overnight
Experimental: as §1
as §2, with “1. […]” for “1.”
as §3, with “protocol. […]” for “protocol.”

GUAGGCAC
secreted amounts of TNF-α (human PBMC [1]): 40 to 100 ng/mL | secreted amounts of IL-12 p40 (human PBMC [2]): 10 to 20 ng/mL

5′-GUCUGUUGUGUG-3′ (RNA, backbone not given here)
TNF induced (human PBMC [1]): 50 to 100 ng/mL | IL-12 p40 induced (human PBMC [2]): 50 to 200 ng/mL

CUAGGCAC
secreted amounts of TNF-α (human PBMC [1]): 40 to 100 ng/mL | secreted amounts of IL-12 p40 (human PBMC [2]): 10 to 20 ng/mL

GUGUUUAC
secreted amounts of TNF-α (human PBMC [1]): 40 to 100 ng/mL | secreted amounts of IL-12 p40 (human PBMC [2]): 10 to 20 ng/mL

CUCGGCAC
secreted amounts of TNF-α (human PBMC [1]): 40 to 100 ng/mL | secreted amounts of IL-12 p40 (human PBMC [2]): 10 to 20 ng/mL

5′-GUAGUGUGUG-3′ (RNA, backbone not given here)
TNF induced (human PBMC [1]): 50 to 100 ng/mL | IL-12 p40 induced (human PBMC [2]): 50 to 200 ng/mL
